# Source: the supplement of paper PMC8728848
# The list shows a part of the results.
# B1: RsaA-N-term (Caulobacter crescentus), P35828 (protein)
# chain: MAYTTAQLVTAYTNANLGKAPDAATTLTLDAYATQTQTGGLSDAAALTNTLKLVNSTTAVAIQTYQFFTGVAPSAAGLDFLVDSTTNTNDLNDAYYSKFAQENRFINFSINLATGAGAGATAFAAAYTGVSYAQTVATAYDKIIGNAVATAAGVDVAAAVAFLSRQANIDYLTAFVRANTPFTAAADIDLAVKAALIGTILNAATVSGIGGYATATAAMINDLSDGALSTDNAAGVNLFTAYPSSGVSGSTLSLTTGTDTLTGTANNDTFVAGEVAGDGSGWSHPQFEKGG
# Columns and labels:
# Experiment in all cases: glycan array binding signal (z-score within array); higher = stronger binding
# Conditions in all cases: glycan notation: IUPAC condensed, linker removed
# [1] = target: Gal(b1-4)GlcNAc(b1-2)Man(a1-6)[GlcNAc(b1-2)Man(a1-3)]Man(b1-4)GlcNAc(b1-4)GlcNAc
# In short: (§1)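 Arrays were curated from the Consortium for Functional Glycomics database, 3228 in total, and kept only where the protein sequence was available. Binding is expressed as a within-array Z-score. This score was averaged across arrays of the same protein sequence at different concentrations or buffers and across linkers, and negative values can be read as non-binding.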
# [2] = target: Gal(b1-4)GlcNAc(b1-2)Man(a1-6)[Man(a1-3)]Man(b1-4)GlcNAc(b1-4)GlcNAc
# In short: as §1
# [3] = target: Gal(b1-4)GlcNAc(b1-2)[Gal(b1-4)GlcNAc(b1-4)]Man(a1-3)[Gal(b1-4)GlcNAc(b1-2)Man(a1-6)]Man(b1-4)GlcNAc(b1-4)GlcNAc
# In short: as §1
# [4] = target: Gal(b1-4)GlcNAc(b1-2)[Gal(b1-4)GlcNAc(b1-4)]Man(a1-3)[Gal(b1-4)GlcNAc(b1-2)[Gal(b1-4)GlcNAc(b1-6)]Man(a1-6)]Man(b1-4)GlcNAc(b1-4)GlcNAc
# In short: as §1
# [5] = target: Gal(b1-4)GlcNAc(b1-2)[Gal(b1-4)GlcNAc(b1-4)]Man(a1-3)[GlcNAc(b1-4)][Gal(b1-4)GlcNAc(b1-2)Man(a1-6)]Man(b1-4)GlcNAc(b1-4)GlcNAc
# In short: as §1
# [6] = target: Gal(b1-4)GlcNAc(b1-2)[Gal(b1-4)GlcNAc(b1-4)]Man(a1-3)[GlcNAc(b1-4)][Gal(b1-4)GlcNAc(b1-2)[Gal(b1-4)GlcNAc(b1-6)]Man(a1-6)]Man(b1-4)GlcNAc(b1-4)GlcNAc
# In short: as §1
# [7] = target: Gal(b1-4)GlcNAc(b1-2)[Gal(b1-4)GlcNAc(b1-6)]Man(a1-6)[Gal(b1-4)GlcNAc(b1-2)Man(a1-3)]Man(b1-4)GlcNAc(b1-4)GlcNAc
# In short: as §1
# [8] = target: Gal(b1-4)GlcNAc(b1-2)[Gal(b1-4)GlcNAc(b1-6)]Man(a1-6)[Gal(b1-4)GlcNAc(b1-2)Man(a1-3)]Man(b1-4)GlcNAc(b1-4)[Fuc(a1-6)]GlcNAc
# In short: as §1
# [9] = target: Gal(b1-4)GlcNAc(b1-2)[Gal(b1-4)GlcNAc(b1-6)]Man(a1-6)[GlcNAc(b1-4)][Gal(b1-4)GlcNAc(b1-2)Man(a1-3)]Man(b1-4)GlcNAc(b1-4)GlcNAc
# In short: as §1
# [10] = target: Gal(b1-4)GlcNAc(b1-2)[Gal(b1-4)GlcNAc(b1-6)]Man(a1-6)[GlcNAc(b1-4)][Gal(b1-4)GlcNAc(b1-2)[Gal(b1-4)GlcNAc(b1-4)]Man(a1-3)]Man(b1-4)GlcNAc(b1-4)[Fuc(a1-6)]GlcNAc
# In short: as §1
# [11] = target: Gal(b1-4)GlcNAc(b1-3)Gal(b1-3)GalNAc
# In short: as §1
# [12] = target: Gal(b1-4)GlcNAc(b1-3)Gal(b1-3)GlcNAc
# In short: as §1
# [13] = target: Gal(b1-4)GlcNAc(b1-3)Gal(b1-4)Glc
# In short: as §1
# [14] = target: Gal(b1-4)GlcNAc(b1-3)Gal(b1-4)GlcNAc
# In short: as §1
# [15] = target: Gal(b1-4)GlcNAc(b1-3)Gal(b1-4)GlcNAc(b1-2)Man(a1-3)[Gal(b1-4)GlcNAc(b1-3)Gal(b1-4)GlcNAc(b1-2)Man(a1-6)]Man(b1-4)GlcNAc(b1-4)GlcNAc
# In short: as §1
# [16] = target: Gal(b1-4)GlcNAc(b1-3)Gal(b1-4)GlcNAc(b1-2)Man(a1-3)[Gal(b1-4)GlcNAc(b1-3)Gal(b1-4)GlcNAc(b1-2)Man(a1-6)]Man(b1-4)GlcNAc(b1-4)[Fuc(a1-6)]GlcNAc
# In short: as §1
# [17] = target: Gal(b1-4)GlcNAc(b1-3)Gal(b1-4)GlcNAc(b1-2)[Gal(b1-4)GlcNAc(b1-3)Gal(b1-4)GlcNAc(b1-6)]Man(a1-6)[Gal(b1-4)GlcNAc(b1-3)Gal(b1-4)GlcNAc(b1-2)Man(a1-3)]Man(b1-4)GlcNAc(b1-4)GlcNAc
# In short: as §1
# [18] = target: Gal(b1-4)GlcNAc(b1-3)Gal(b1-4)GlcNAc(b1-2)[Gal(b1-4)GlcNAc(b1-3)Gal(b1-4)GlcNAc(b1-6)]Man(a1-6)[Gal(b1-4)GlcNAc(b1-3)Gal(b1-4)GlcNAc(b1-2)Man(a1-3)]Man(b1-4)GlcNAc(b1-4)[Fuc(a1-6)]GlcNAc
# In short: as §1
# [19] = target: Gal(b1-4)GlcNAc(b1-3)Gal(b1-4)GlcNAc(b1-3)Gal(b1-4)GlcNAc
# In short: as §1
# [20] = target: Gal(b1-4)GlcNAc(b1-3)Gal(b1-4)GlcNAc(b1-3)Gal(b1-4)GlcNAc(b1-2)Man(a1-3)[Gal(b1-4)GlcNAc(b1-3)Gal(b1-4)GlcNAc(b1-3)Gal(b1-4)GlcNAc(b1-2)Man(a1-6)]Man(b1-4)GlcNAc(b1-4)GlcNAc
# In short: as §1
# [21] = target: Gal(b1-4)GlcNAc(b1-3)Gal(b1-4)GlcNAc(b1-3)Gal(b1-4)GlcNAc(b1-2)Man(a1-3)[Gal(b1-4)GlcNAc(b1-3)Gal(b1-4)GlcNAc(b1-3)Gal(b1-4)GlcNAc(b1-2)Man(a1-6)]Man(b1-4)GlcNAc(b1-4)[Fuc(a1-6)]GlcNAc
# In short: as §1
# [22] = target: Gal(b1-4)GlcNAc(b1-3)Gal(b1-4)GlcNAc(b1-3)Gal(b1-4)GlcNAc(b1-2)[Gal(b1-4)GlcNAc(b1-3)Gal(b1-4)GlcNAc(b1-3)Gal(b1-4)GlcNAc(b1-6)]Man(a1-6)[Gal(b1-4)GlcNAc(b1-3)Gal(b1-4)GlcNAc(b1-3)Gal(b1-4)GlcNAc(b1-2)Man(a1-3)]Man(b1-4)GlcNAc(b1-4)[Fuc(a1-6)]GlcNAc
# In short: as §1
binder,measurement,setting,value
B1,glycan array binding signal (z-score),[1],0.415
same,glycan array binding signal (z-score),[2],0.32
same,glycan array binding signal (z-score),[3],0.483
same,glycan array binding signal (z-score),[4],-0.496
same,glycan array binding signal (z-score),[5],1.51
same,glycan array binding signal (z-score),[6],-0.581
same,glycan array binding signal (z-score),[7],-0.57
same,glycan array binding signal (z-score),[8],0.599
same,glycan array binding signal (z-score),[9],-1.22
same,glycan array binding signal (z-score),[10],-0.744
same,glycan array binding signal (z-score),[11],0.424
same,glycan array binding signal (z-score),[12],-1.03
same,glycan array binding signal (z-score),[13],-0.696
same,glycan array binding signal (z-score),[14],-0.079
same,glycan array binding signal (z-score),[15],3.15
same,glycan array binding signal (z-score),[16],2.39
same,glycan array binding signal (z-score),[17],-0.563
same,glycan array binding signal (z-score),[18],1.11
same,glycan array binding signal (z-score),[19],-0.897
same,glycan array binding signal (z-score),[20],2.09
same,glycan array binding signal (z-score),[21],-0.794
same,glycan array binding signal (z-score),[22],-0.258

# Laid out differently: entries from further up
binder | measurement | setting | value
B1 | glycan array binding signal (z-score) | [17] | -0.563
same | glycan array binding signal (z-score) | [19] | -0.897
